# Experimental data from the supplement of paper PMC10398353.
# Counter-ions that a name gives are not always drawn. ± gives the standard deviation of the averaged measurements. The list shows a part of the results. The data scatter; read single values as rough.
# Tested on: Salmonella enterica serovar Typhimurium ST313 D23580
# Assay: normalized bacterial growth (OD600 20 h minus 0 h, interquartile-mean normalized) (fraction of plate interquartile mean); higher = more bacterial growth (less inhibition)
# Conditions: LPM (pH 5.8, low phosphate, low Mg2+), concentration: 10 µM, temperature: 37 °C
row,Compound,normalized bacterial growth
1,CC(N)Cc1c[nH]c2ccc(O)cc12 (stereo not drawn) [alpha-Methyl-5-hydroxytryptamine maleate],1.07
2,CN1C[C@H](CO)C=C2c3cccc4[nH]cc(c34)C[C@H]21 [Lysergol],0.813
3,CN1C[C@H](CO)C=C2c3cccc4[nH]cc(c34)C[C@H]21,0.801
4,N[C@H](CCCCCP(=O)(O)O)C(=O)O [D(-)-2-Amino-7-phosphonoheptanoic acid],0.859
5,CC(=O)O[C@H]1C[C@H](O[C@H]2[C@@H](O)C[C@H](O[C@H]3[C@@H](O)C[C@H](O[C@H]4CC[C@@]5(C)[C@H](CC[C@@H]6[C@@H]5C[C@@H](O)[C@]5(C)[C@@H](C7=CC(=O)OC7)CC[C@]65O)C4)O[C@@H]3C)O[C@@H]2C)O[C@H](C)[C@H]1O[C@@H]1O[C@H](CO)[C@@H](O)[C@H](O)[C@H]1O [Lanatoside C],0.88
6,CC(=O)O[C@H]1C[C@H](O[C@H]2[C@@H](O)C[C@H](O[C@H]3[C@@H](O)C[C@H](O[C@H]4CC[C@@]5(C)[C@H](CC[C@@H]6[C@@H]5C[C@@H](O)[C@]5(C)[C@@H](C7=CC(=O)OC7)CC[C@]65O)C4)O[C@@H]3C)O[C@@H]2C)O[C@H](C)[C@H]1O[C@@H]1O[C@H](CO)[C@@H](O)[C@H](O)[C@H]1O,0.918
7,Cc1c([C@H](C)[C@@H]2NC[C@@H](C)C[C@H]2O)ccc2c1C[C@H]1[C@H]2CC=C2C[C@@H](O)CC[C@@]21C,1.13
8,O=C1C=C2C(=CCOC2O)O1 (centres undefined),0.628
9,COc1ccc(CCN2CCC(Nc3nc4ccccc4n3Cc3ccc(F)cc3)CC2)cc1,1.03
10,COc1cc2c(cc1OC)[C@@]13CCN4CC5=CCO[C@H]6CC(=O)N2[C@H]1[C@H]6[C@H]5C[C@H]43,0.94
11,CC(C)(C)NCC(O)c1cc(Cl)c(N)c(Cl)c1 (centres undefined) [Clenbuterol hydrochloride],1.15
12,N[C@@H](CCl)C(=O)O [beta-Chloro-L-alanine hydrochloride],0.393
13,Fc1ccc(C(OCCN2CCN(CCCc3ccccc3)CC2)c2ccc(F)cc2)cc1,0.98
14,COC(=O)C1=CCCN(C)C1 [Arecoline hydrobromide],1.06
15,COC(=O)C1=CCCN(C)C1,0.992
16,O=C[C@H](Cl)[C@@H](O)[C@H](O)[C@H](O)CO [2-Chloro-2-deoxy-D-glucose],0.497
17,NNC(N)=O [Semicarbazide hydrochloride],1.04
18,O=C(NC(=O)c1c(F)cccc1F)Nc1cc(Cl)c(OC(F)(F)C(F)C(F)(F)F)cc1Cl (centres undefined),1.17
19,COc1cc2c(cc1OC)[C@H](C)NCC2,0.97822 ± 0.00057

# Exported bar-delimited: entries from further up
row | Compound | normalized bacterial growth
1 | CC(N)Cc1c[nH]c2ccc(O)cc12 (stereo not drawn) [alpha-Methyl-5-hydroxytryptamine maleate] | 1.07
4 | N[C@H](CCCCCP(=O)(O)O)C(=O)O [D(-)-2-Amino-7-phosphonoheptanoic acid] | 0.859
6 | CC(=O)O[C@H]1C[C@H](O[C@H]2[C@@H](O)C[C@H](O[C@H]3[C@@H](O)C[C@H](O[C@H]4CC[C@@]5(C)[C@H](CC[C@@H]6[C@@H]5C[C@@H](O)[C@]5(C)[C@@H](C7=CC(=O)OC7)CC[C@]65O)C4)O[C@@H]3C)O[C@@H]2C)O[C@H](C)[C@H]1O[C@@H]1O[C@H](CO)[C@@H](O)[C@H](O)[C@H]1O | 0.918
18 | O=C(NC(=O)c1c(F)cccc1F)Nc1cc(Cl)c(OC(F)(F)C(F)C(F)(F)F)cc1Cl (centres undefined) | 1.17
